In patent publication US20210030703A1, “USE OF CALORIC RESTRICTION MIMETICS FOR POTENTIATING CHEMO-IMMUNOTHERAPY FOR THE TREATMENT OF CANCERS” (INSERM (INSTITUT NATIONAL DE LA SANTÉ ET DE LA RECHERCHE …, priority 2018, published 2021):
At least one compound was matched to its structure with a doubt left.

System: MCA205 fibrosarcoma
Assay: Subcutaneous MCA205 fibrosarcoma: tumor growth, cure and survival under chemo-immunotherapy
Type: in vivo, C57B1/6 mice
Description: Mouse strain and housing. Six- to 8-week-old wild-type female C57B1/6 mice were obtained from Envigo RMS SARL (Gannat, France). Animals were maintained in specific pathogen-free conditions in a temperature-controlled environment with 12 h light, 12 h dark cycles and received food and water ad libitum (unless precised otherwise). Animal experiments were in compliance with the EU Directive 63/2010 and approved by the Ethical Committee of the Cordeliers Research Center (Paris, France). All mouse experiments were randomized and blinded, and sample sizes were calculated to detect a statistically significant effect.
In vivo experimentations. Tumor engraftment was performed through subcutaneous injection of 3×10^5 MCA205 fibrosarcoma tumor cells (in 100 μl PBS) in the right flank of the mice. Tumor volume was monitored using a digital caliper and calculated according to the formula: volume=length×width×height/8×4/3 pi. […] Tumor size was carefully monitored up to 50 days post-MTX. […]

How did the “Tumors disappeared below the detection threshold” value (aspirin + MTX chemotherapy + immunotherapy (anti-PD-1 plus anti-CTLA-4), late timepoint (FIG. 2F)) turn out when `CC(=O)Oc1ccccc1C(=O)O` [aspirin, acetylsalicylate] was run?
Its value is 3 out of 6.

And the “Efficacy of MTX + ICIs (anti-PD-1 plus anti-CTLA-4) chemo-immunotherapy when the CRM is added” value (figure legends FIG. 2, 3, 4, 6)?
The value was “improves the efficacy”.
